The campaign covered roughly 340,000 compounds. About 4,500 (1.3%) were called active. The inconclusive results got no clear call from the source; some entries with a clear call stand among them for comparison. Calls follow the shape of the dose curve; as a rule, active = well fitted inhibition curve with a large enough effect; inconclusive = small, poorly fitted or top-dose-only effect, or another doubt; inactive = no such curve, though single readings can be large or run the other way. Where the call is inconclusive, the potency comes from a doubtful curve fit.
Each compound was assayed against DNA polymerase beta (Homo sapiens) (UniProt P06746) (assay: qHTS Assay for Inhibitors of DNA Polymerase Beta). Settings: Pol beta primer extension/strand displacement, fluorescence kinetic; activity change, negative = inhibition: at 114 µM (top of the series).
Outline: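 Curves were derived by four-parameter Hill fits of normalized qHTS data. The kinetic fluorescent primer-extension read was taken at 0 and 10 min after 50 nM substrate, following a 15 min room-temperature preincubation of 10 nM enzyme with compounds.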
% is scaled to controls: 0 for no effect and ±100 for the full control effect; potency is read from the fitted curve at half-maximal effect.

Compound | activity change, negative = inhibition | Potency
COc1ccc(CNC(=O)C(=O)NCC(c2cccs2)S(=O)(=O)c2cccs2)cc1 (stereo not given) | inactive: -1.51% | –
Cc1sccc1C1C(C#N)=C(N)SC(N)=C1C#N | – | inconclusive: 39.8 µM [inhibitor, full curve, poor fit]
O=c1[nH]c(/C=C\c2ccccc2F)nc(O)c1[N+](=O)[O-] | inactive: 15% | –
Cc1cc(C(=O)CN2C(=O)NC(c3ccccc3)(c3ccccc3)C2=O)c(C)n1Cc1ccco1 | – | inconclusive: 39.8 µM [inhibitor, single point]
CCc1nnc(NS(=O)(=O)c2ccc(NC(=O)/C=C/c3ccc(OC)cc3OC)cc2)s1 | – | active: 56.2 µM
S=c1nc(-c2cccc(Cl)c2)[nH][nH]1 | inactive: 3.28% | –
CC(NC(=O)c1cc2ccccc2oc1=O)c1ccccc1 (stereo not given) | – | inconclusive: 25.1 µM [inhibitor, single point]
O=C1CCN(Cc2ccc(Br)cc2)CCN1CCO | inactive: 5.09% | –
Oc1cccc(Nc2ncnc3c2oc2ccccc23)c1 | – | inconclusive: 20 µM [inhibitor, full curve]
COc1cc([N+](=O)[O-])ccc1-c1ccc(/C=N/NC(N)=O)o1 | inconclusive: -30.5% [inhibitor] | –
CCC(C)c1ccc(C2C3=C(Nc4nc(N)[nH]c(=O)c42)c2ccccc2C3=O)cc1 (stereo not given) | – | inconclusive: 28.2 µM [inhibitor, single point]
O=C(c1cc2cc3ccc(Cl)cc3nc2o1)N1CCN(c2cccc(Cl)c2)CC1 | inactive: 1.25% | –
O=c1c2nncn2ccn1-c1ccc(F)c(F)c1 | – | active: 31.6 µM
O=C(NC(Cc1ccccc1)C(=O)O)/C(=C/c1ccco1)NC(=O)c1cccc(Br)c1 (stereo not given) | – | inconclusive: 15.8 µM [inhibitor, full curve, poor fit]
COc1ccc(NCC(=O)N/N=C/c2cc([N+](=O)[O-])ccc2N2CCCC2)cc1 | – | inconclusive: 89.1 µM [inhibitor, single point]
O=C1NN(c2ccccc2)C(=O)/C1=C\c1ccc(-c2cc([N+](=O)[O-])ccc2O)o1 | – | active: 10 µM
O=C(NCCCn1ccnc1)C(=O)NCC(c1ccco1)N1CCN(c2ccc(F)cc2)CC1 (stereo not given) | inactive: 19.7% | –
O=C(Cn1ncc2c3ccccc3n(Cc3cccc(Cl)c3)c2c1=O)NCC1CCCO1 (stereo not given) | inconclusive: -51.5% [inhibitor] | –
CSc1ccc(C2C(C#N)=C(N)Oc3c2ccc(=O)c2c(C)oc(C)c32)cc1 (stereo not given) | – | inconclusive: 15.8 µM [inhibitor, full curve, poor fit]
COc1ccc(/C=N/NC(=O)c2cc3c(OC)ccc(OC)c3[nH]2)cc1O | – | inconclusive: 35.5 µM [inhibitor, partial curve]

Retrieved by structure from the list above, two records:
Compound | activity change, negative = inhibition | Potency
Cc1cc(C(=O)CN2C(=O)NC(c3ccccc3)(c3ccccc3)C2=O)c(C)n1Cc1ccco1 | – | inconclusive: 39.8 µM [inhibitor, single point]
O=C(NC(Cc1ccccc1)C(=O)O)/C(=C/c1ccco1)NC(=O)c1cccc(Br)c1 (stereo not given) | – | inconclusive: 15.8 µM [inhibitor, full curve, poor fit]
